# Laboratory results taken from patent US7192940B2, “Ether compounds” (Esperion Therapeutics, Inc., priority 1999, dated 2007).
# For some of these results: For at least one compound, name, drawing or mass did not settle the structure. Some results were stated once for a whole list of compounds, not compound by compound. Some ranges recur; such a range may be that of the whole group of compounds.
# What was measured:
# primary rat hepatocytes = test: Cytotoxicity: LDH leakage from hepatocyte monolayer cultures; type: cell-based; settings: all concentrations tested, up to 250 μM; 24 hours
# obese female Zucker rats [1] = test: Experiment A: serum lipids, glucose, non-esterified fatty acids and weight gain in obese female Zucker rats after seven days of oral treatment; type: in vivo, rat; settings: 120 mg/kg, one week
# Procedure: Dosing vehicle, Compound A (86 mg/kg of body weight) or troglitazone (120 mg/kg of body weight) was administered to eight week old female obese Zucker rats daily for seven days in the morning by oral gavage in 1.5% carboxymethylcellulose/0.2% Tween-20. Troglitazone was obtained commercially. Finely crushed tablets were suspended in vehicle for dosing. Orbital blood samples were obtained following a six-hour fast prior to the initial dose and also following the seventh dose.
# Blood serum was assayed for total cholesterol and triglycerides (FIG. 5), lipoprotein cholesterol profiles (FIG. 6), VLDL plus LDL cholesterol combined (also referred to as apo B containing lipoprotein cholesterol or non-HDL cholesterol), HDL cholesterol, and the ratio of HDL cholesterol to that of VLDL plus LDL cholesterol (FIG. 7), serum glucose, and non-esterified fatty acids (FIG. 8), and percent weight gain (FIG. 9). […] In particular, Compound A caused a marked elevation in HDL cholesterol after one week of treatment. Using the serum total cholesterol values (FIG. 5A) and the lipoprotein cholesterol distribution (FIG. 6), the amount of cholesterol associated with non-HDL (i.e., VLDL plus LDL) and HDL were determined (FIG. 7). […] In contrast, troglitazone reduced non-HDL and HDL cholesterol by 67% and 4%, respectively.
# obese female Zucker rats [2] = test: Experiments B, C, D & E: serum lipids, glucose, insulin, body and liver weight in obese female Zucker rats treated for 14 days; type: in vivo, rat; settings: Experiment C; for glucose to insulin ratio: all doses
# Procedure: In a number of different experiments, illustrative compounds of the invention and troglitazone were administered daily at various doses to 10-week old chow fed obese female Zucker rats for 14 days in the morning by oral gavage in 1.5% carboxymethylcellulose/0.2% Tween-20 (dosing vehicle). Animals were weighed daily. Animals were allowed free access to rodent chow and water throughout the study. Blood glucose was determined after a 6-hour fast in the afternoon without anesthesia from a tail vein. Serum was also prepared from a blood sample subsequently obtained from the orbital venous plexus (with O2/CO2 anesthesia) prior to and after one week treatment and used lipid and insulin determinations. At two weeks, blood glucose was again determined after a 6-hour fast without anesthesia from a tail vein. Soon thereafter, animals were sacrificed by CO2 inhalation in the evening and cardiac blood serum was collected and assessed for various lipids and insulin. Body weight was determined daily prior to dosing and at the time of euthanasia.
smiles,measurement,setting,value
"CC(C)(CO)CCCCOCCCCC(C)(C)CO [Compound A, 6-(6-hydroxy-5,5-dimethylhexyloxy)-2,2-dimethyl-hexan-1-ol]","secretion of LDH in the medium, of total LDH",primary rat hepatocytes,25–30%
Cc1c(C)c2c(c(C)c1O)CCC(C)(COc1ccc(CC3SC(=O)NC3=O)cc1)O2 (stereo not shown) [troglitazone],change of total serum cholesterol,obese female Zucker rats [1],reduction
same,blood glucose,"obese female Zucker rats [2]; 40 mg/kg, fasted, not seen at 120 mg/kg",tendency to lower blood glucose
same,serum insulin levels,"obese female Zucker rats [2]; all doses tested, two weeks of treatment",reduced
same,glucose to insulin ratio,obese female Zucker rats [2]; after one week treatment,sustained
same,glucose to insulin ratio,obese female Zucker rats [2]; after two weeks of treatment,increased
same,serum total cholesterol,"obese female Zucker rats [2]; highest dose (120 mg/kg), only after two weeks of treatment",only modestly elevated
"CC(C)(CCCCOCCCCC(C)(C)OP(=O)(OCc1ccccc1)OCc1ccccc1)OP(=O)(OCc1ccccc1)OCc1ccccc1 [Compound C, phosphoric acid dibenzyl ester 5-(5-(bis-benzyloxy-phosphoryloxy)-5-methyl-hexyloxy)-1,1-dimethyl-pentyl ester]","secretion of LDH in the medium, of total LDH",primary rat hepatocytes,25–30%
"CC(C)(CCCCOCCCCC(C)(C)OP(=O)(O)O)OP(=O)([O-])[O-].[Na+].[Na+] [Compound B, phosphoric acid mono-(1,1-dimethyl-5-(5-methyl-5-phosphonooxy-hexyloxy)-pentyl) ester sodium salt]","secretion of LDH in the medium, of total LDH",primary rat hepatocytes,25–30%
"CC(C)(CCCOCCCC(C)(C)OP(=O)(O)O)OP(=O)([O-])[O-].[Na+].[Na+] [Compound D, phosphoric acid mono-(1,1-dimethyl-4-(4-methyl-4-phosphonooxy-pentyloxy)-butyl) ester sodium salt]","secretion of LDH in the medium, of total LDH",primary rat hepatocytes,25–30%
